Experimental data published in article PMC10245119.
No constants are given. Whether binding was seen depends on the method and setting. Binding seen in cells or lysates may run through a third protein. Some binding calls cover weakened binding; strength is not graded here. Tags and fused reporters may be left off the sequences shown.

By UniProt entry, the sequences of proteins in these tests, tags left out.
UniProt Q924X7: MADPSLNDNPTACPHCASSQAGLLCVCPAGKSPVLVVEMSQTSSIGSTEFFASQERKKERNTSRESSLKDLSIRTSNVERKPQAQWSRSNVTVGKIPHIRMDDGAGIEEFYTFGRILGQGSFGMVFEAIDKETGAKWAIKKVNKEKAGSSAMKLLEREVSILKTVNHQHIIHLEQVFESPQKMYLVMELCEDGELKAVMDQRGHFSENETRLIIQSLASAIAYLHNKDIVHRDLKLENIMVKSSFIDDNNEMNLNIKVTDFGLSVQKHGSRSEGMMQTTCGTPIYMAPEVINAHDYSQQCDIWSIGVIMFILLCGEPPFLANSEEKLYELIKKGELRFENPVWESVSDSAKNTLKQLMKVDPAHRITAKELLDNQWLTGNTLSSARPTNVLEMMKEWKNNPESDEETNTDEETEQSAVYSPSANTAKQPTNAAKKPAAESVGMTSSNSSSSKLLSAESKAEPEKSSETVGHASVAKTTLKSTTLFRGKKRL

Molecular target: T1, AKAP3-FLAG (A-kinase anchoring protein 3, FLAG-tagged) (UniProt O88987)
T1 sequence: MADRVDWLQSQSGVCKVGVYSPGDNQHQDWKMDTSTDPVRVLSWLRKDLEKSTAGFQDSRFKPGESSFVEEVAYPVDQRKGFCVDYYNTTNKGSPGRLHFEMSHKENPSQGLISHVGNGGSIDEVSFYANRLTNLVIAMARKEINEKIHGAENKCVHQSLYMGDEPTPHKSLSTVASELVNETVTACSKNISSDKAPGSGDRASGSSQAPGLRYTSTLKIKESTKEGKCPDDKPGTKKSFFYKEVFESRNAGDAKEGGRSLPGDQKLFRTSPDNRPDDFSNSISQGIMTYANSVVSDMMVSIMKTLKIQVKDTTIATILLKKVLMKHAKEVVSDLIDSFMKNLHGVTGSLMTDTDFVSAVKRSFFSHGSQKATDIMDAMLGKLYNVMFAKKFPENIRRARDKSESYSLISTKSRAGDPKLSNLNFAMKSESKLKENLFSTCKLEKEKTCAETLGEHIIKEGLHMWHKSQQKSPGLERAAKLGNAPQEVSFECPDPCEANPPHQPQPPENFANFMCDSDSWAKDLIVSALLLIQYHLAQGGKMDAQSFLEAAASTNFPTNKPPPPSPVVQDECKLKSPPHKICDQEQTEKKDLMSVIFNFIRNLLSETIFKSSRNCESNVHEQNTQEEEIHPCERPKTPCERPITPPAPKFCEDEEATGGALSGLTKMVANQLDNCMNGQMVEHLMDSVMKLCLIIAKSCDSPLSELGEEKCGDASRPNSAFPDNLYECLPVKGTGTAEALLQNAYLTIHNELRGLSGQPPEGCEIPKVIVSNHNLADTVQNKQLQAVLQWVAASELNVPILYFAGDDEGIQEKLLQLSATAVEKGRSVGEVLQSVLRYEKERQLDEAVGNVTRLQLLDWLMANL
Test: co-IP; AKAP3-FLAG or FLAG-AKAP4-FLAG co-expressed with STK33-HA or STK33 KI-HA in HEK293T cells; lysis in Pierce IP lysis buffer; primary antibody overnight at 4 °C; protein A/G magnetic beads or G1 affinity resin; washes in PBST (0.5% Triton X-100); Western blot; reciprocal for STK33-HA

binding: binds
Substance: STK33-HA (serine/threonine kinase 33, HA-tagged) (from UniProt Q924X7 1-491) (enzyme)
